{"source": "paper PMC7554988", "target": "mature form of D. discoideum frataxin (DdFXN) (Dictyostelium discoideum) (UniProt Q54C45)", "assay": "SEC; SEC-HPLC on a Superose 6 column under native conditions; 40 µM DdFXN, 50 µL injected; 20 mM Tris-HCl, 100 mM NaCl, 1 mM EDTA, pH 7.0; room temperature (~25 °C); 0.5 mL/min; mass inferred from a calibration with globular standards; samples kept at -70 °C or for 30 days at 4 °C gave similar results; both purified", "note": "These are yes or no findings as the source states them, for the method shown.", "data": [{"binder": "mature form of D. discoideum frataxin (DdFXN) (protein, UniProt Q54C45 73-193) STINNNTKPISDVNLFHDIVDEEFELFVDRLEILSEANTCEGFEVEGNDGVLTIIVGNKGTYVINKQTPNRQIWWSSPLSGPKRFDYDSVEKRWVDNRDGTPLRQLLNSEINTLCKYDMEI", "values": [{"measurement": "binding", "value": "no binding (tested: 40 µM)"}]}]}
